Results deposited as PubChem BioAssay AID652272 (Drosophila RNAi Screening Center, 2013)

Purpose: 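Genes whose knock-down decreases or increases Hedgehog reporter output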 (primary screen)
Cells: Drosophila clone 8 (Cl8) cells
Reagent: long dsRNA against Drosophila genes
Measured: 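Firefly light from a Hedgehog-responsive ptc promoter reporter and Renilla reference light, both read on a plate reader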
Reading the numbers: firefly Hh reporter signal: higher = more ptc reporter light; Renilla reference signal: higher = more Renilla control light
Active means: 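Called a hit if the two-replicate mean z-score lies below -2 or above +3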
Calls: active = hit: reporter lowered or raised; inactive = not a hit
In all, the deposit lists about 21,000 reagents; below is a random part of those with a known target gene and a result. Of all reagents, 503 (2.4%) were called active. 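Raw plate light values, not normalised; calls rest on replicate z-scores that were not deposited; hits include reporter decreases as well as increases.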 Not given: the amount of reagent, the time to read-out.

no.	predicted target	PubChem SID	firefly Hh reporter signal, replicate 1	firefly Hh reporter signal, replicate 2	Renilla reference signal, replicate 1	Renilla reference signal, replicate 2	activity call
1	Vha36-3 (Vacuolar H[+] ATPase 36kD subunit 3)	SID104198407	1.15e5	3.52e5	4384	12776	inactive
2	Ogg1 (8-oxoguanine DNA glycosylase)	SID104197530	80775	1.01e5	2027	2375	inactive
3	CG4020	SID104198129	76816	1.72e5	2935	6756	inactive
4	ppk29 (pickpocket 29)	SID104183997	81680	72629	1696	6284	inactive
5	Lsd-1 (Lipid storage droplet-1)	SID104194028	1.27e5	75732	5618	2316	inactive
6	CG13071	SID104189746	1.12e5		4523	3267	inactive
7	CG1368	SID104199329	96016	91884	1989	2112	inactive
8	Coq3 (Coenzyme Q3)	SID104182960	55928	74805	2038	2875	inactive
9	CysRS-m (Cysteinyl-tRNA synthetase, mitochondrial)	SID104186921	94442	57463	3990	2475	inactive
10	CG4186	SID104191545	1.05e5	96987	3746	2951	inactive
11	alien	SID104183274	71865	84092	2256	2618	inactive
12	CG6733	SID104195895	6.69e5	1.08e5	36512	3980	inactive
13	RpL31 (Ribosomal protein L31)	SID104186508	36610	23856	2168	3692	active
14	GstT3 (Glutathione S transferase T3)	SID104200333	73977	3.04e5	1618	11865	inactive
15	CG14606	SID104192342	76784	1.08e5	2804	3131	inactive
16	CG10914	SID104185802	92445	54216	2700	4338	inactive
17	LamC (Lamin C)	SID104187245	1.08e5	70978	4453	2604	inactive
18	TwdlU (TweedleU)	SID104192016	1.11e5	1.29e5	4221	3872	inactive
19	Jon65Aiii (Jonah 65Aiii)	SID104190441	79348	70866	3961	3099	inactive
20	CG9822	SID104184360	85309	79074	1639	5388	inactive
21	CG10348	SID104181835	1.58e5	89416	3671	8821	inactive
22	CG14829	SID104189991	97920	65785	10698	4864	inactive
23	CG5245	SID104195542	68161	1.16e5	2224	5901	inactive
24	CG14687	SID104194702	1.21e5	2.06e5	2150	5546	inactive
25	Mlf (Myelodysplasia/myeloid leukemia factor)	SID104187264	37383	20288	1100	1901	inactive
26	Oseg4 (Outer segment 4)	SID104188340	1.10e5	76768	4516	2474	inactive
27	RhoGAPp190 (Rho GTPase activating protein p190)	SID104199889	93283	2.69e5	1895	10201	inactive
28	RhoGAPp190 (Rho GTPase activating protein p190)	SID104199891	99633	1.22e5	2450	2800	inactive
29	Adk1 (Adenosine kinase 1)	SID104195306	56979	78968	1992	2109	inactive
30	CG13008	SID104199319	53168	1.77e5	1600	7270	inactive
31	CG13008	SID104199320	47648	2.27e5	1404	9222	inactive
32	CG31495	SID104196554	1.06e5	65942	3513	1946	inactive
33	CG2614	SID104182503	6.16e5	1.20e5	4901	4901	inactive
34	CG15909	SID104184769	76573	54886	2392	2787	inactive
35	Pdss2 (Decaprenyl diphosphate synthase subunit 2)	SID104191417	82498	62567	3004	2457	inactive
36	CG32944	SID104191930	84261	83619	2976	4592	inactive
37	CG32944	SID104192133	70931	97153	2754	5292	inactive
38	MsR2 (Myosuppressin receptor 2)	SID104188128	1.34e5	77912	3399	5424	inactive
39	MsR2 (Myosuppressin receptor 2)	SID104188129	53367	37629	1797	3056	inactive

A run of entries taken from the entries so far, as a working copy:
no.	predicted target	PubChem SID	firefly Hh reporter signal, replicate 1	firefly Hh reporter signal, replicate 2	Renilla reference signal, replicate 1	Renilla reference signal, replicate 2	activity call
20	CG9822	SID104184360	85309	79074	1639	5388	inactive
21	CG10348	SID104181835	1.58e5	89416	3671	8821	inactive
22	CG14829	SID104189991	97920	65785	10698	4864	inactive
23	CG5245	SID104195542	68161	1.16e5	2224	5901	inactive
24	CG14687	SID104194702	1.21e5	2.06e5	2150	5546	inactive
